Test results as given in PMC4671066, “Characterization of the 26S proteasome network in Plasmodium falciparum” (Scientific Reports, 2015).

Biological target: T1, hexahistidyl-tagged P. falciparum thioredoxin 1 (PfTrx1) (P. falciparum) (UniProt Q7KQL8)
T1 sequence: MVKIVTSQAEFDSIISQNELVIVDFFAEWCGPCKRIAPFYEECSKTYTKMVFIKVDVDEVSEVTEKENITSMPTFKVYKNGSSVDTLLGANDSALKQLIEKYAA
Assay: pull-down; both purified

Row | Substance | binding
1 | GST-fused UBL domain of PfDsk2 (P. falciparum) (domain or fragment) | no binding (tested: 18 μM bait, 1.8 μM GST-tagged UBL domain)
2 | GST-fused UBL domain of PfRad23 (P. falciparum) (domain or fragment) | no binding (tested: 18 μM bait, 1.8 μM GST-tagged UBL domain)

These are yes or no findings as the source states them, for the method shown. Sequences can lack the tags named with a protein.
